{
  "source": "patent US12433964B2",
  "about": "“Antiviral and antibacterial disinfection aero-solution using edible food dyes” (Purdue Research Foundation, priority 2020, dated 2025)",
  "origin": "cited, not measured here",
  "key": {"[1]": {"settings": "cited from earlier work"}, "[2]": {"settings": "cited from earlier work", "remark": "listed apart in the source"}},
  "note": "At least one structure is not confirmed: it was looked up by name or label, or the drawing left a doubt.",
  "data": [
    {"smiles": "O=C([O-])c1c(Cl)c(Cl)c(Cl)c(Cl)c1-c1c2cc(I)c(=O)c(I)c-2oc2c(I)c([O-])c(I)cc12.[Na+].[Na+]", "note": "[FD&C RED No. 105, Rose Bengal]", "values": [
      {"measurement": "1O2 generation quantum yield", "setting": "[1]", "value": 0.75},
      {"measurement": "Maximum excitation wavelength (nm)", "setting": "[2]", "value": 550, "unit": "nm"}
    ]},
    {"smiles": "O=C1OC2(c3ccc(O)cc3Oc3cc(O)ccc32)c2ccccc21", "note": "[Fluorescein]", "values": [
      {"measurement": "1O2 generation quantum yield", "setting": "[1]", "value": 0.06},
      {"measurement": "Maximum excitation wavelength (nm)", "setting": "[2]", "value": 494, "unit": "nm"}
    ]},
    {"smiles": "O=C1/C(=C2\\Nc3ccc(S(=O)(=O)[O-])cc3C2=O)Nc2ccc(S(=O)(=O)[O-])cc21.[Na+].[Na+]", "note": "[FD&C BLUE No. 2, Indigo Carmine]", "values": [
      {"measurement": "1O2 generation quantum yield", "setting": "[1]", "value": 0.3},
      {"measurement": "Maximum excitation wavelength (nm)", "setting": "[2]", "value": 607, "unit": "nm"}
    ]},
    {"smiles": "O=C(O)c1ccccc1-c1c2cc([N+](=O)[O-])c(=O)c(Br)c-2oc2c(Br)c(O)c([N+](=O)[O-])cc12", "note": "[Eosin B]", "values": [
      {"measurement": "1O2 generation quantum yield", "setting": "[1]", "value": 0.52},
      {"measurement": "Maximum excitation wavelength (nm)", "setting": "[2]", "value": 518, "unit": "nm"}
    ]}
  ]
}
